# In the supplement of paper PMC11438910:
# The list shows a part of the results. Most of these values are background signal.
# B1: 4-127.4 (protein)
# chain 1: QVQLQESGPGLVKPSETLSLTCGVSGYSISSGHGWSWIRQPPGKGLEWIGYVGGSSGNTNYNPSLKSRVTISKDTSKNQISLKLSSVTAADTAVYYCARRGISGTFGLVDYWGQGVLVTVSS
# chain 2: QSVLTQPPSVSGAPGQRVTISCTGSSSNIGGYYVQWYQQLPGSAPKLLIYDNDQRPSGVSDRISGSRSGTSASLTITGLQSEDEADYYCQSFDSFLRGVLFGGGTRLTVL
# Tests used:
# Test in all cases: fluorescence intensity of antibody binding to polysaccharide-coupled beads; higher = stronger binding
# [1] = biological target: pneumococcal polysaccharide Pn10A
# [2] = biological target: pneumococcal polysaccharide Pn10B
# [3] = biological target: pneumococcal polysaccharide Pn10C
# [4] = biological target: pneumococcal polysaccharide Pn10F
# [5] = biological target: pneumococcal polysaccharide Pn11A
# [6] = biological target: pneumococcal polysaccharide Pn11B
# [7] = biological target: pneumococcal polysaccharide Pn11C
# [8] = biological target: pneumococcal polysaccharide Pn11D
# [9] = biological target: pneumococcal polysaccharide Pn11F
# [10] = biological target: pneumococcal polysaccharide Pn12A
# [11] = biological target: pneumococcal polysaccharide Pn12B
# [12] = biological target: pneumococcal polysaccharide Pn12F
# [13] = antibody concentration 2337.65 ng/mL
# [14] = antibody concentration 12500 ng/mL
# [15] = antibody concentration 0.1 ng/mL
# [16] = antibody concentration 0.534724 ng/mL
# [17] = antibody concentration 2.8593 ng/mL
# [18] = antibody concentration 15.2894 ng/mL
# [19] = antibody concentration 81.7561 ng/mL
# [20] = antibody concentration 437.17 ng/mL
binder,measurement,setting,value
B1,fluorescence intensity,[1]; [13],27.5 MFI
same,fluorescence intensity,[1]; [14],34 MFI
same,fluorescence intensity,[2]; [15],23.5 MFI
same,fluorescence intensity,[2]; [16],25.5 MFI
same,fluorescence intensity,[2]; [17],24.8 MFI
same,fluorescence intensity,[2]; [18],23.2 MFI
same,fluorescence intensity,[2]; [19],23.5 MFI
same,fluorescence intensity,[2]; [20],23.8 MFI
same,fluorescence intensity,[2]; [13],25 MFI
same,fluorescence intensity,[2]; [14],25 MFI
same,fluorescence intensity,[3]; [15],18 MFI
same,fluorescence intensity,[3]; [16],15.5 MFI
same,fluorescence intensity,[3]; [17],16 MFI
same,fluorescence intensity,[3]; [18],16.5 MFI
same,fluorescence intensity,[3]; [19],16 MFI
same,fluorescence intensity,[3]; [20],16 MFI
same,fluorescence intensity,[3]; [13],17.5 MFI
same,fluorescence intensity,[3]; [14],18.5 MFI
same,fluorescence intensity,[4]; [15],22.5 MFI
same,fluorescence intensity,[4]; [16],18.5 MFI
same,fluorescence intensity,[4]; [17],20 MFI
same,fluorescence intensity,[4]; [18],20 MFI
same,fluorescence intensity,[4]; [19],20 MFI
same,fluorescence intensity,[4]; [20],20.5 MFI
same,fluorescence intensity,[4]; [13],20.2 MFI
same,fluorescence intensity,[4]; [14],23.5 MFI
same,fluorescence intensity,[5]; [15],27.8 MFI
same,fluorescence intensity,[5]; [16],29 MFI
same,fluorescence intensity,[5]; [17],30 MFI
same,fluorescence intensity,[5]; [18],28.8 MFI
same,fluorescence intensity,[5]; [19],30 MFI
same,fluorescence intensity,[5]; [20],31.2 MFI
same,fluorescence intensity,[5]; [13],35.8 MFI
same,fluorescence intensity,[5]; [14],45.2 MFI
same,fluorescence intensity,[6]; [15],27 MFI
same,fluorescence intensity,[6]; [16],27.5 MFI
same,fluorescence intensity,[6]; [17],25.8 MFI
same,fluorescence intensity,[6]; [18],26.5 MFI
same,fluorescence intensity,[6]; [19],25.8 MFI
same,fluorescence intensity,[6]; [20],28.2 MFI
same,fluorescence intensity,[6]; [13],31.2 MFI
same,fluorescence intensity,[6]; [14],37.5 MFI
same,fluorescence intensity,[7]; [15],22.2 MFI
same,fluorescence intensity,[7]; [16],22.5 MFI
same,fluorescence intensity,[7]; [17],22 MFI
same,fluorescence intensity,[7]; [18],22 MFI
same,fluorescence intensity,[7]; [19],21.5 MFI
same,fluorescence intensity,[7]; [20],21.5 MFI
same,fluorescence intensity,[7]; [13],27.8 MFI
same,fluorescence intensity,[7]; [14],60 MFI
same,fluorescence intensity,[8]; [15],23.8 MFI
same,fluorescence intensity,[8]; [16],23.8 MFI
same,fluorescence intensity,[8]; [17],23 MFI
same,fluorescence intensity,[8]; [18],22.5 MFI
same,fluorescence intensity,[8]; [19],23 MFI
same,fluorescence intensity,[8]; [20],23.5 MFI
same,fluorescence intensity,[8]; [13],24.2 MFI
same,fluorescence intensity,[8]; [14],41.5 MFI
same,fluorescence intensity,[9]; [15],15 MFI
same,fluorescence intensity,[9]; [16],14.2 MFI
same,fluorescence intensity,[9]; [17],13.8 MFI
same,fluorescence intensity,[9]; [18],13.2 MFI
same,fluorescence intensity,[9]; [19],13.2 MFI
same,fluorescence intensity,[9]; [20],14.5 MFI
same,fluorescence intensity,[9]; [13],16.5 MFI
same,fluorescence intensity,[9]; [14],17.8 MFI
same,fluorescence intensity,[10]; [15],16.8 MFI
same,fluorescence intensity,[10]; [16],14.8 MFI
same,fluorescence intensity,[10]; [17],15 MFI
same,fluorescence intensity,[10]; [18],15.5 MFI
same,fluorescence intensity,[10]; [19],14.5 MFI
same,fluorescence intensity,[10]; [20],16 MFI
same,fluorescence intensity,[10]; [13],16.5 MFI
same,fluorescence intensity,[10]; [14],23.5 MFI
same,fluorescence intensity,[11]; [15],15.5 MFI
same,fluorescence intensity,[11]; [16],16 MFI
same,fluorescence intensity,[11]; [17],15.8 MFI
same,fluorescence intensity,[11]; [18],16.2 MFI
same,fluorescence intensity,[11]; [19],16 MFI
same,fluorescence intensity,[11]; [20],15.5 MFI
same,fluorescence intensity,[11]; [13],16.5 MFI
same,fluorescence intensity,[11]; [14],25.5 MFI
same,fluorescence intensity,[12]; [15],18.2 MFI
same,fluorescence intensity,[12]; [16],18.5 MFI
same,fluorescence intensity,[12]; [17],17 MFI
same,fluorescence intensity,[12]; [18],19 MFI
same,fluorescence intensity,[12]; [19],19 MFI
same,fluorescence intensity,[12]; [20],19.5 MFI
same,fluorescence intensity,[12]; [13],20.5 MFI
same,fluorescence intensity,[12]; [14],32.5 MFI

# Shown bar-delimited: part of the list above.
binder | measurement | setting | value
B1 | fluorescence intensity | [2]; [14] | 25 MFI
same | fluorescence intensity | [3]; [15] | 18 MFI
same | fluorescence intensity | [3]; [16] | 15.5 MFI
